In the supplement of paper PMC10849652:
This is one part of the list.

Chains of the proteins cited; added tags and fusions are not shown. Lines headed by an entry give the natural chain unless they say otherwise; changes in a name come on top.
UniProt P30711: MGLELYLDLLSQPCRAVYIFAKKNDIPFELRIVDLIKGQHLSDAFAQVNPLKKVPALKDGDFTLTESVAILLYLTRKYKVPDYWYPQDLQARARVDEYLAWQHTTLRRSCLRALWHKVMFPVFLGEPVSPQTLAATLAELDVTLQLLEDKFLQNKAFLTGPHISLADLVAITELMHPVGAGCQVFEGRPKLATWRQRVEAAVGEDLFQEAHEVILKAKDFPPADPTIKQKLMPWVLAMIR
UniProt Q9BSE4: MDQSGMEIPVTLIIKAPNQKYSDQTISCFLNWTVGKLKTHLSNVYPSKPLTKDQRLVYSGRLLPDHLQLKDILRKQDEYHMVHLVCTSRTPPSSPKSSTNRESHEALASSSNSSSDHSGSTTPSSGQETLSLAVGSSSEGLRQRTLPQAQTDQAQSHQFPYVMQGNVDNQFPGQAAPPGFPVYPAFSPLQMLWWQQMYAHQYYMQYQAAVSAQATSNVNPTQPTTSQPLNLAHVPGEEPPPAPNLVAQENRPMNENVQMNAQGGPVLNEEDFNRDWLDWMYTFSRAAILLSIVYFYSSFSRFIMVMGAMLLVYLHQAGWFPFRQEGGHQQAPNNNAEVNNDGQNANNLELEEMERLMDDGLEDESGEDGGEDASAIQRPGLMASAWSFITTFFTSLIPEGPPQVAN
UniProt Q9NVX0: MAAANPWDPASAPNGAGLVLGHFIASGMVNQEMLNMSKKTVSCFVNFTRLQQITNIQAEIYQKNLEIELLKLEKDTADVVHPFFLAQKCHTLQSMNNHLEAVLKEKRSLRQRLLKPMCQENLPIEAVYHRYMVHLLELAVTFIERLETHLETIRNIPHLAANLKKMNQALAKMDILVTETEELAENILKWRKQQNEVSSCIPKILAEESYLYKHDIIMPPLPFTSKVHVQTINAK
UniProt Q96MH2: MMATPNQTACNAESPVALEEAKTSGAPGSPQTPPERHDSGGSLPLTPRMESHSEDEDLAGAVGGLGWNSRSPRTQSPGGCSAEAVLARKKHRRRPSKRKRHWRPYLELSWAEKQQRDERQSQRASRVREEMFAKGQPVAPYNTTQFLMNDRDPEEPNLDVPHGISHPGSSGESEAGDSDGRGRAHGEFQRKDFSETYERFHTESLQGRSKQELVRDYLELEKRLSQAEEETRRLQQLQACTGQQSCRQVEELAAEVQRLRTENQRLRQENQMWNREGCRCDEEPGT
UniProt Q4G148: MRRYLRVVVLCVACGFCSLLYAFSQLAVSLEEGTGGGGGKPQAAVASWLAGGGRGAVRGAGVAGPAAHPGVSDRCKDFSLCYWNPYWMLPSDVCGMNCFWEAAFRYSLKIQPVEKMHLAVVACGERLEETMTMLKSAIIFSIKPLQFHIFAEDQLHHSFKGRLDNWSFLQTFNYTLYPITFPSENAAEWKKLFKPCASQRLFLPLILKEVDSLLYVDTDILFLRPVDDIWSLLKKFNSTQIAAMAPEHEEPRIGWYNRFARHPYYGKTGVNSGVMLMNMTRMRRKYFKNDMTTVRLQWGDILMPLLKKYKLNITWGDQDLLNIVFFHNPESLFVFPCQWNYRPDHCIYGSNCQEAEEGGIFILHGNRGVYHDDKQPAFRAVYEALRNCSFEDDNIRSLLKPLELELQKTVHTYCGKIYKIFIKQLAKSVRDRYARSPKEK
UniProt Q9UQL6: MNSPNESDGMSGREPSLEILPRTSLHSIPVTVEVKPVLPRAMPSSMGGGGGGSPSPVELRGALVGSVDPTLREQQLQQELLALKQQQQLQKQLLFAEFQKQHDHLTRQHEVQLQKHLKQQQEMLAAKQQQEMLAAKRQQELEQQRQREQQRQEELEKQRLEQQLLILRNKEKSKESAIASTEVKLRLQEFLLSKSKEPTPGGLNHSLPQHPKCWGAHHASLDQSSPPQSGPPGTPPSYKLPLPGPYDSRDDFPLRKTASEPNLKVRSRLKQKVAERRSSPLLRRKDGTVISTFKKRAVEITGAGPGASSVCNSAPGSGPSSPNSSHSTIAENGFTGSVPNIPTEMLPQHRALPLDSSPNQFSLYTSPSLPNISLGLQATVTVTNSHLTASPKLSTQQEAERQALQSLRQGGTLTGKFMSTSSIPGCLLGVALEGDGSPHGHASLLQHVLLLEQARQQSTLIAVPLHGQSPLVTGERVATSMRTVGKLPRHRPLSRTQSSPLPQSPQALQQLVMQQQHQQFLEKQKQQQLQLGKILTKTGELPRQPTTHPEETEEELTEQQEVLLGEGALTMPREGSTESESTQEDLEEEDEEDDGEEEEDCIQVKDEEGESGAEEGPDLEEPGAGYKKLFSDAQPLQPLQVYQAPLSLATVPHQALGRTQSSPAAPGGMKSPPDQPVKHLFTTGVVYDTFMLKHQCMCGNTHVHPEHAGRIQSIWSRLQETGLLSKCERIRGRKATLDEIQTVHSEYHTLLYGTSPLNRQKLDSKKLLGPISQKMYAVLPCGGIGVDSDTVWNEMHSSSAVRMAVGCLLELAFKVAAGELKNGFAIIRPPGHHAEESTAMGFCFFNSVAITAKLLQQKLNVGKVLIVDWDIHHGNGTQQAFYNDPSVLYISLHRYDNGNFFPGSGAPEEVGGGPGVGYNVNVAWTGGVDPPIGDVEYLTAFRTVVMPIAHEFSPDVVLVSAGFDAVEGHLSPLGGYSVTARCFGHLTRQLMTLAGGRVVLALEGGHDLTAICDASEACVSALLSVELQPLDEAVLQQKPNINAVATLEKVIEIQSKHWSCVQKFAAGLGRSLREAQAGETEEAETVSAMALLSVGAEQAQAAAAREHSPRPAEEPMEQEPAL
UniProt O15488: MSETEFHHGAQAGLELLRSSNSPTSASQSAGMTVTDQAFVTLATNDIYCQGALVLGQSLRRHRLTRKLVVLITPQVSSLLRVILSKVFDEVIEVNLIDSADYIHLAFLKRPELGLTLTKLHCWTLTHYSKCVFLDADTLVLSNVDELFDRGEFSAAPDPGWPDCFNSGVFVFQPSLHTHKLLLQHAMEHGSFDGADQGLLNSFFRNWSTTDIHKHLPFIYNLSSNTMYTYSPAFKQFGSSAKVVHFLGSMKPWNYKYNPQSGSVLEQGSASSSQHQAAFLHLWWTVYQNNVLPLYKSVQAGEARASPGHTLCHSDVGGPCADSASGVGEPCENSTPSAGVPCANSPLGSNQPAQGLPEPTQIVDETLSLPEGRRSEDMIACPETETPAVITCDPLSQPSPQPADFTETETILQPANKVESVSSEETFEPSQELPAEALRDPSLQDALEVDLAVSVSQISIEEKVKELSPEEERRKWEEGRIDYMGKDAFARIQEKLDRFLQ
UniProt Q04756: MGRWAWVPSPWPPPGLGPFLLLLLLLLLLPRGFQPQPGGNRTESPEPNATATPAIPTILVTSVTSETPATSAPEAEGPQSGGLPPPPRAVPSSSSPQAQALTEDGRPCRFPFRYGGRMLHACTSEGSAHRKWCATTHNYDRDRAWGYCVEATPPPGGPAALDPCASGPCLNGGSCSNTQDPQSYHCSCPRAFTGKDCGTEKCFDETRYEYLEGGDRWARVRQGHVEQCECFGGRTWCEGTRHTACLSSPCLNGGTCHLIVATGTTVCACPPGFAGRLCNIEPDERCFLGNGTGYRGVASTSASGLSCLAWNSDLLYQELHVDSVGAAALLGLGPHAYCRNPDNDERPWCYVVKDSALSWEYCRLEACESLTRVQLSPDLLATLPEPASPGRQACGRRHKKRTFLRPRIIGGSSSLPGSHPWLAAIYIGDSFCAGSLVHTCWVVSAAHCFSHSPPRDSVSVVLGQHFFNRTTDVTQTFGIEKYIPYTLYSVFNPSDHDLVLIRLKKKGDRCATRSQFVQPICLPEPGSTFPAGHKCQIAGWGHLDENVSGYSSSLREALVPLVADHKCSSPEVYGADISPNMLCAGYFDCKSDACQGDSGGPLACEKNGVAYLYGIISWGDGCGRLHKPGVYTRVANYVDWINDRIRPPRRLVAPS
UniProt Q99871: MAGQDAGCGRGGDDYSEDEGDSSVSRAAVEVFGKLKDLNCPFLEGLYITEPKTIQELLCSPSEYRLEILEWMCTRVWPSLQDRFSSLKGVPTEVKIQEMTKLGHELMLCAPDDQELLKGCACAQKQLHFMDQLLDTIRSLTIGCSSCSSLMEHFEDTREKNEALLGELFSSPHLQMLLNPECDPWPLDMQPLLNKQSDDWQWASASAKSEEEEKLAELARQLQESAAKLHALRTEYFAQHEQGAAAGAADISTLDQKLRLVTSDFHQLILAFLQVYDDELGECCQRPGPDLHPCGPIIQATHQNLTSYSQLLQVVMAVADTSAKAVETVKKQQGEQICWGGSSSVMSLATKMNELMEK
UniProt Q14469: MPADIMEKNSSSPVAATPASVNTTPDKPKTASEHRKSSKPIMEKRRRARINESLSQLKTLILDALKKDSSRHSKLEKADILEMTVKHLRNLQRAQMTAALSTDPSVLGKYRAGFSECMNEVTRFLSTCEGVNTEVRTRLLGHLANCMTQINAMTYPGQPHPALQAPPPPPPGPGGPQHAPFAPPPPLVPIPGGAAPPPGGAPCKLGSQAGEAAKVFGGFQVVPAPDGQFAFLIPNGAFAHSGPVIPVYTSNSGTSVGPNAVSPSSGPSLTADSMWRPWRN
UniProt Q92759: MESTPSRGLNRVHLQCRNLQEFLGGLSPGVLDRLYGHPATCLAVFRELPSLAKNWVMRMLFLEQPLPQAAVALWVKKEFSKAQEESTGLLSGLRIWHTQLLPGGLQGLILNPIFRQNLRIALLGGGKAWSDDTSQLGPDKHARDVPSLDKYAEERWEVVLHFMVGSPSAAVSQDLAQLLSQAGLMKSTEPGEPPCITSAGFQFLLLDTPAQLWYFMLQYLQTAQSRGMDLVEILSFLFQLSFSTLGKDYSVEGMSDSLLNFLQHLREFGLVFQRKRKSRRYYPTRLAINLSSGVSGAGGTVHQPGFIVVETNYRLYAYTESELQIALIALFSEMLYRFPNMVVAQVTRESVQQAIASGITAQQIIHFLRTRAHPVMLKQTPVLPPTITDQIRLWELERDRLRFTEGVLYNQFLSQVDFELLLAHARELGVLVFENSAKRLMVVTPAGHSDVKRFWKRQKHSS
UniProt Q8N3Z3: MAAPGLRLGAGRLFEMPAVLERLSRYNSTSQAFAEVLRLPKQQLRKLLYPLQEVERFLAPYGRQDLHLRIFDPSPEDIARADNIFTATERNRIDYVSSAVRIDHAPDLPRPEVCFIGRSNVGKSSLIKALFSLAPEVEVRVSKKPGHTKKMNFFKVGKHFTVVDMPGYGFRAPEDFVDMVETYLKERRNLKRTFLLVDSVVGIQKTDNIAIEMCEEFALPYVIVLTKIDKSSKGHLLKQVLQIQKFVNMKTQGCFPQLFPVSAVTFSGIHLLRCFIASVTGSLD
UniProt Q15011: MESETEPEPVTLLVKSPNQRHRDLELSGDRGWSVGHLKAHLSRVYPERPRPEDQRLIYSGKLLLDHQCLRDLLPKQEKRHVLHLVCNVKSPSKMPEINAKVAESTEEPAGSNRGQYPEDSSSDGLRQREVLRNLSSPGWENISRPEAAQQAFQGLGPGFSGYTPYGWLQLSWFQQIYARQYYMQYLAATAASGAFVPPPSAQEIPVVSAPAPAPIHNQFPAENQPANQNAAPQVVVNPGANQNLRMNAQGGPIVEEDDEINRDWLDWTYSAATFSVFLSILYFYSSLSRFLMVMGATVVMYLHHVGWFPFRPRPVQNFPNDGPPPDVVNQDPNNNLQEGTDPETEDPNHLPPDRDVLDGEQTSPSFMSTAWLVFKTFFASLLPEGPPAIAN
UniProt Q9H116: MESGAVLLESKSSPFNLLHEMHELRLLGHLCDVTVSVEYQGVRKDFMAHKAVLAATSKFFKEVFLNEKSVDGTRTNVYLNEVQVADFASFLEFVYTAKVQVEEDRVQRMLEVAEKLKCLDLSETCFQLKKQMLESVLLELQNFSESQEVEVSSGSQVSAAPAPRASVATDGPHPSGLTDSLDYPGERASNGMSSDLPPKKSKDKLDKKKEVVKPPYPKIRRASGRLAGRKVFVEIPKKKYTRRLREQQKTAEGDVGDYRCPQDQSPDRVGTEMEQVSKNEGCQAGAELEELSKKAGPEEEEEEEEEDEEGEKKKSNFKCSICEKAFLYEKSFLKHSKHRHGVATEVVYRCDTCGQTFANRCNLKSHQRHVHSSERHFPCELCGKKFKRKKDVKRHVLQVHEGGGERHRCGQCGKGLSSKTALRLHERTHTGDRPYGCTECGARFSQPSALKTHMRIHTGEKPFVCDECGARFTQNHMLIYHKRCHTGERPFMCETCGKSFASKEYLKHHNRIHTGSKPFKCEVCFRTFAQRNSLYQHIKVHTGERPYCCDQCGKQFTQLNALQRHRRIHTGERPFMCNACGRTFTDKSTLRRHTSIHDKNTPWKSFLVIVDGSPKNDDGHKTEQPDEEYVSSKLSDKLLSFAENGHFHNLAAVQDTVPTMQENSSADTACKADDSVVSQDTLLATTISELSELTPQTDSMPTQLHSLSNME

Columns and labels:
Assay in all cases: log2 fold change, soluble protein after heating vs DMSO (PISA); higher = thermal stabilisation; K562 cells, 10 uM, 30 min; active = over 0.2 and 3.5 SD of the protein, either way, in both replicates (recomputed)
[1] = compound: CC1=NC(=CC=C1)C2=C(N=C(N2)C(C)(C)C)C3=CC4=NC=CN=C4C=C3
Method in brief: (§1)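 For each measurement, 10 μM compound was applied for 30 min to K562 cells at 2×10^6 cells/mL. Aliquots were heated for 3 min across 48°C-58°C, pooled, and extracted in PBS with 0.5% NP-40 at 4°C; the supernatant after 21,000xg for 90 min was soluble protein. This was quantified by TMTpro 16plex LC-MS/MS with channel sums equalised, and thermal stability was reported relative to control samples from duplicates, on a log2 fold-change scale.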

vemurafenib = compound: CCCS(=O)(=O)Nc1ccc(F)c(C(=O)c2c[nH]c3ncc(-c4ccc(Cl)cc4)cc23)c1F [vemurafenib]
Method in brief: as §1

[2] = compound: CCCc1cc(C)[nH]c(=O)c1CNC(=O)c1cc(-c2ccnc(N3CCN(C)CC3)c2)cc2c1cnn2C(C)C
Method in brief: as §1

givinostat = compound: CCN(CC)Cc1ccc2cc(COC(=O)Nc3ccc(C(=O)NO)cc3)ccc2c1 [givinostat]
Method in brief: as §1

[3] = compound: CCn1c(C(=O)N(C2CC2)C2CC2)cc2c3c(ncn3C)c(Nc3cc(C)n(C)n3)nc21
Method in brief: as §1

[4] = compound: CN(C)CC(=O)Nc1ccc2[nH]c(=O)c3ccccc3c2c1
Method in brief: as §1

[5] = compound: CC1=C(C=C(C=C1)NC(=O)C2=CC(=CC=C2)N(C)C)NC(=O)C3=CC=C(C=C3)O
Method in brief: as §1

[6] = compound: CC1=CC=C(C=C1)SC2=C3C=C(SC3=CN=C2)C(=O)N
Method in brief: as §1

Nexturastat A = compound: CCCCN(Cc1ccc(C(=O)NO)cc1)C(=O)Nc1ccccc1 [Nexturastat A]
Method in brief: as §1

[7] = compound: CCCS(=O)(=O)Nc1ccc(F)c(C(=O)c2c[nH]c3ncc(Cl)cc23)c1F
Method in brief: as §1

barasertib = compound: CCN(CCCOc1ccc2c(Nc3cc(CC(=O)Nc4cccc(F)c4)[nH]n3)ncnc2c1)CCOP(=O)(O)O [barasertib]
Method in brief: as §1

[8] = compound: CC[C@@H]1C(=O)N(C)c2cnc(Nc3ccc(C(=O)NC4CCN(C)CC4)cc3OC)nc2N1C1CCCC1
Method in brief: as §1

volasertib = compound: CC[C@@H]1C(=O)N(C)c2cnc(Nc3ccc(C(=O)N[C@H]4CC[C@H](N5CCN(CC6CC6)CC5)CC4)cc3OC)nc2N1C(C)C [volasertib]
Method in brief: as §1

[9] = compound: CC[C@H](C)N1C=C(C2=C(C=C(C=C21)C3=CN=C(C=C3)N4CCNCC4)C(=O)NCC5=C(C=C(NC5=O)C)C)C
Method in brief: as §1

epoxomicin = compound: CC[C@H](C)[C@@H](C(=O)N[C@@H]([C@@H](C)O)C(=O)N[C@@H](CC(C)C)C(=O)[C@]1(CO1)C)NC(=O)[C@H]([C@@H](C)CC)N(C)C(=O)C [epoxomicin]
Method in brief: as §1

[10] = compound: CCn1cc(-c2ccnc3[nH]c(-c4cccc(CN(C)C)c4)cc23)c(-c2ccc(NC(=O)N(C)C)cc2)n1
Method in brief: as §1

[11] = compound: CN1C2=C(C3=C1C(=O)N(N=C3)CC4=CC(=CC=C4)N)SC(=C2)S(=O)C
Method in brief: as §1

[12] = compound: CN1CCC(CNc2ccc3ncc(-c4cccc(OC(F)(F)F)c4)n3n2)CC1
Method in brief: as §1

rosiglitazone = compound: CN(CCOC1=CC=C(C=C1)C[C@H]2C(=O)NC(=O)S2)C3=CC=CC=N3 (racemic) [rosiglitazone]
Method in brief: as §1

[13] = compound: CC1=C(C=C(C=C1)NC(=O)C2=CC(=CC=C2)C(C)(C)C#N)NC3=CC4=C(C=C3)N=CN(C4=O)C
Method in brief: as §1

Measured: log2 fold change

HECTD4 (UniProt Q9Y4D8)
inactive: [1] 0.127 | vemurafenib 0.011 | [2] 0.049 | givinostat 0.106 | [3] -0.053 | [4] 0.158

GSTT1 (UniProt P30711)
inactive: [5] -0.004 | [6] 0.011 | [1] 0.101 | Nexturastat A -0.062 | vemurafenib 0.064 | [7] -0.063 | [2] 0.081 | givinostat 0.009 | barasertib -0.018 | [8] 0.02 | volasertib -0.057 | [9] -0.038 | epoxomicin 0.203 | [10] 0.019 | [4] -0.034 | [11] -0.058 | [12] -0.002

HERPUD2 (UniProt Q9BSE4)
inactive: [5] -0.035 | [1] 0.065 | vemurafenib 0.1 | givinostat -0.04 | barasertib -0.054 | [3] -0.059 | [4] 0.057 | rosiglitazone -0.145 | [11] 0.37

GSPT1 isoform 2 (UniProt P15170)
inactive: [9] -0.053

HAUS2 (UniProt Q9NVX0)
inactive: [6] -0.034 | [7] 0.269 | [2] 0.139 | givinostat 0.118 | [8] 0.131 | volasertib -0.398 | [3] 0.124 | [11] 0.3

HEXIM2 (UniProt Q96MH2)
inactive: [1] -0.114 | Nexturastat A 0.036 | vemurafenib -0.082 | epoxomicin -0.12 | [10] 0.203 | [4] 0.071 | [12] -0.077

GXYLT1 (UniProt Q4G148)
inactive: [5] -0.124 | [6] 0.054 | [1] 0.379 | Nexturastat A -0.327 | vemurafenib 0.142 | [7] 0.039 | [2] 0.072 | givinostat 0.028 | barasertib 0.04 | [8] 0.088 | volasertib -0.11 | [9] -0.026 | epoxomicin 0.09 | [3] 0.03 | [10] -0.318 | [4] -0.113 | rosiglitazone 0.163 | [11] -0.047 | [12] 0.074

HDAC5 isoform 3 (UniProt Q9UQL6)
inactive: [13] -0.064 | Nexturastat A 0.131 | [2] -0.161 | givinostat 0.074 | barasertib -0.144 | [8] -0.004 | [9] -0.024 | epoxomicin -0.036 | [3] 0.026 | [10] 0 | rosiglitazone 0.018 | [11] -0.072 | [12] -0.095

GYG2 (UniProt O15488)
inactive: [2] -0.139 | givinostat 0.033 | [3] -0.093

Copied from the listing (two entries):
GXYLT1 (UniProt Q4G148)
inactive: [5] -0.124 | [6] 0.054 | [1] 0.379 | Nexturastat A -0.327 | vemurafenib 0.142 | [7] 0.039 | [2] 0.072 | givinostat 0.028 | barasertib 0.04 | [8] 0.088 | volasertib -0.11 | [9] -0.026 | epoxomicin 0.09 | [3] 0.03 | [10] -0.318 | [4] -0.113 | rosiglitazone 0.163 | [11] -0.047 | [12] 0.074

HDAC5 isoform 3 (UniProt Q9UQL6)
inactive: [13] -0.064 | Nexturastat A 0.131 | [2] -0.161 | givinostat 0.074 | barasertib -0.144 | [8] -0.004 | [9] -0.024 | epoxomicin -0.036 | [3] 0.026 | [10] 0 | rosiglitazone 0.018 | [11] -0.072 | [12] -0.095

(cont.)

HGFAC (UniProt Q04756)
inactive: [6] 0.029 | [1] -0.024 | Nexturastat A -0.22 | [7] -0.07 | [2] -0.417 | givinostat -0.084 | barasertib 0.037 | volasertib 0.039 | [9] -0.034 | epoxomicin -0.172 | [3] -0.15 | rosiglitazone 0.061 | [11] 0.601

HAUS8 (UniProt Q9BT25)
inactive: [5] 0.365 | [6] -0.064 | vemurafenib -0.496 | [7] -0.168 | [2] 0.114 | volasertib 0.003 | [9] 0.106 | [10] 0.388 | [4] -0.073 | [12] -0.121

HAUS7 isoform 2 (UniProt Q99871)
inactive: [5] 0.085 | vemurafenib -0.094 | [4] -0.103

GTF3C3 (UniProt Q9Y5Q9)
inactive: [6] 0.149 | [1] -0.243 | [7] -0.029 | [2] 0.241 | givinostat -0.034 | barasertib 0.06 | [8] 0.038 | volasertib 0.125 | [9] 0.062 | [3] 0.081 | [10] -0.126 | rosiglitazone 0.007 | [11] -0.281 | [12] 0.07

HES1 (UniProt Q14469)
inactive: [1] 0.07 | [2] -0.07 | givinostat 0.03 | [3] 0.006 | [10] -0.005 | [11] 0.012 | [12] 0.046

GTF2H4 (UniProt Q92759)
inactive: [13] 0.038 | [6] -0.007 | Nexturastat A -0.241 | vemurafenib -0.238 | [7] -0.04 | [2] -0.501 | [8] -0.115 | volasertib -0.13 | [9] -0.005 | epoxomicin -0.479 | [10] 0.11 | [4] -0.163 | [11] 0.119 | [12] -0.017

GTPBP8 (UniProt Q8N3Z3)
inactive: [6] -0.089 | [1] 0.086 | vemurafenib -0.095 | [7] 0.008 | givinostat -0.014 | [8] 0.068 | volasertib -0.17 | [9] 0.376 | [3] 0.307 | [4] -0.03

HERPUD1 (UniProt Q15011)
inactive: [6] -0.026 | vemurafenib 0.015 | [7] 0.058 | [2] -0.086 | givinostat 0.042 | volasertib 0.007 | [3] -0.061 | [4] 0.007

GZF1 (UniProt Q9H116)
inactive: [13] -0.12 | vemurafenib -0.529 | [4] 0.126 | [11] 0.137
